{
  "source": "patent US8324282B2",
  "about": "“Alkylating agent combinations in the treatment of cancer” (Case Western Reserve University, priority 1999, dated 2012)",
  "key": {"[1]": {"tested_on": "SW480 cells", "test": "Colony survival assay, SW480", "assay_type": "cell-based, human", "settings": "modifier(s) plus TMZ vs TMZ alone", "excerpt": "(§1) Chemicals and Reagents. BG was generously provided by Dr. Robert Moschel (Frederick Cancer Research and Development Center, National Cancer Institute). Stock solution was made in dimethylsulfoxide. TMZ and BCNU were obtained from the Drug Synthesis and Chemistry Branch, Drug Therapeutic Program, National Cancer Center Institute. PD128763 was a gift from Park-Davis Pharmaceutical Division. 6-AN, 3-AB, MX and methylmethane sulfonate (MMS) were purchased from Sigma (ST. Louis, Mo.). Stock solutions of PD128763, 3-AB and 6-AN were prepared by dissolving in dimethylsulfoxide and added to cell culture at a final concentration of <1% DMSO, when cells were treated with these compounds. MX was dissolved in sterilized water (pH 7.0). All stock solutions were kept at −20° C. BCNU was prepared fresh in 0.5 ml of 100% ethanol, diluted in PBS, and used with in 10 min. Colony Survival Assay. SW480 cells were obtained from the ATCC. HCT116 cells were obtained from R. Boland, University of Michigan Medical Center. All cell lines were cultured in appropriate growth medium.\n(§2) Cells (2000/dish) were plated, adhered for 18 hrs and treated with TMZ or\n(§3) MMS plus or minus modifiers such as […], MX, 6-AN, 3-AB or PD128763, according to experimental protocol. After treatment, cells were washed and fresh medium was replaced. […]"}, "[2]": {"tested_on": "HCT116 cells", "test": "Colony survival assay, HCT116", "assay_type": "cell-based, human", "settings": "modifier plus TMZ vs TMZ alone", "excerpt": "as §1, §2, §3"}},
  "note": "Some of these results come from one statement about several compounds together.",
  "data": [
    {"smiles": "NC(=O)c1ccc(N)nc1", "note": "[Compound 6-AN, 6-aminonicotinamide]", "values": [
      {"measurement": "DMF (IC50 for TMZ alone/IC50 for TMZ plus modifier(s))", "setting": "[1]", "result": "3-4 fold"},
      {"measurement": "DMF (IC50 for TMZ alone/IC50 for TMZ plus modifier)", "setting": "[2]", "result": "3-4 fold"}
    ]}
  ]
}
